Test results reported in publication PMC10163288.
The list shows a part of the results.

B1: il2ra_site2_3nfp_sap_23_mot_HHH_b1_06158_af2_000000274_0001_1_17_H_._HHH_b1_03883_0001_0000300010_0000001_0_0001 (protein)
chain: SSSSSSRAIEVALEAARQASENIDDEELRERLEELIEELEEKNDPEVALEIYKLLREIYKSSSSS
B2: il2ra_site2_3nfp_sap_23_mot_32bc48042d8ba3d1c0734e77886dd373_0001_1_000000143_0001_36_50_H_._HHH_b1_05006_0001_0000500022_0000001_1_0001_af2pred_0001_1_af2pred_ … (protein)
chain: SSSSSSSDEERVEELLEEAKEIDDEHEFFAVLLLALEIALESRNEELERLVKKVAKEFRSSSSSS
B3: il2ra_site1_3nfp_sap_23_mot_HHH_b1_08723_000000044_0001_1_15_H_._HHH_b2_07756_0001_0000200015_0000001_0_0001_af2pred_0001_af2pred_swapped (protein)
chain: SSSSDVEERVKELLEEAKELLEEGNPEEAAKVLKEALRLAREADDPELVELVARVQEEIARSSSS
B4: il2ra_site1_2b5i_normal_mot_0e5a94e4a5addaac739760efb25f0f5d_0001_000000246_0001_18_32_H_._HHH_b1_03690_0001_0000500022_0000001_0_af2pred_dldesign_0_af2pred (protein)
chain: SSSSSSSLEKAEKAVAEARALYEAGKPREARKLLIKTLYECELAGDEEAVKVIRDELERLESSSS
B5: il2ra_site2_3nfp_normal_mot_HHH_b1_02359_000000112_0001_1_19_H_._ems_3hC_696_af2_0001_0000500010_0000001_0 (protein)
chain: TERLIKLAKIAAELLRREWKDDPEIKRLVEEALEELEQAEEENDEELITEVAQKIMEIFEEATKS
B6: il2ra_site1_1z92_sap_18_mot_HHH_b1_07828_af2_000000107_0001_18_34_H_._HHH_b1_01450_0001_0000200015_0000001_0_0001_af2pred_0001_af2pred (protein)
chain: SSSSSRELAKIISKLVAEFKLSLEDSRELLELALELLERGYSEEEIEELLKELAKELKEGSSSSS
B7: il2ra_site2_2erj_normal_mot_90f6a21de4ed711cb697bb9f61d9c40c_0001_af2_000000135_0001_36_50_H_._HHH_b2_03327_0002_0000300012_0000001_0_af2pred_0001_af2pred_1 (protein)
chain: SSSDREEVAKRVVEELVEELGLDEEAQRLLELAAELAIEAGLSPEQIEQYLRLLAEQLLEIASSS
B8: il2ra_site1_3nfp_sap_12_mot_HHH_b2_04441_af2_000000141_0001_1_20_H_._HHH_b1_03000_af2_0001_0000400056_0000001_0_0001 (protein)
chain: DKVVEFLFRQLRRTKPPEEVVKELLEDAERILGDPEAAEEIVRRVLKALGFSPEEIEELIEEARK
B9: il2ra_site2_3nfp_sap_23_mot_HHH_b2_02049_000000004_0001_42_55_H_._HHH_b2_04533_af2_0001_0000100001_0000001_0_0001 (protein)
chain: DEEEEIERLLEELRKQFPPERVVFIVSAELWHLGIDPREILELLQEVLEKLNDPELERVLEELRT
B10: il2ra_site2_3nfp_sap_18_mot_HHH_b1_02297_000000279_0001_41_58_H_._HHH_b2_03552_0001_0000100005_0000001_0_0001 (protein)
chain: SSSSSDEEEVRELLEEAERLAENGNPEEALQLLLEAASIAWRNNNEELYELVSRVAHELISSSSS
B11: il2ra_site2_2erj_normal_mot_HHH_b1_08162_af2_000000254_0001_40_56_H_._HHH_b2_02886_af2_0001_0000800019_0000001_0 (protein)
chain: SSSSDEEEVEELLERAKELLEEGNPEEAFAVVAEAALLAAEAGSPLFEEASRIFEELYHLQSSSS
B12: il2ra_site2_3nfp_sap_15_mot_HHH_b2_04386_000000117_0001_36_52_H_._HHH_b1_03149_0001_0000200016_0000001_1_0001 (protein)
chain: SSSSDHREKYLKAALALLEWAIERRDEYVVESLIEVLEAAIEDANDEEAEELLERLKREFGSSSS
B13: il2ra_site2_2erj_normal_mot_8a316d4779eb53efc793250774d75e68_0001_af2_000000043_0001_18_32_H_._03d1612f130aec461e27f81ac552cf35_0001_af2_0001_0000100001_0000001 … (protein)
chain: SEEVDRISREAYEKNDPRLASVAAEVAWLILRDPRLEEEVEELLQRLERGELPPEEVLKLLEELK
B14: il2ra_site2_2erj_sap_22_mot_HHH_b2_04755_af2_000000255_0001_22_38_H_._HHH_b1_02474_0001_0001400015_0000001_0_0001_af2pred_0001_af2pred (protein)
chain: SSSSSDKEEVEERVEELLEEARKIPDPREALKVLQEASELAAKLDDDELLEEIAKVARELSSSSS
B15: il2ra_site1_1z92_sap_14_mot_3afbd42359c492d9a5ba12d7e5b15de5_0001_000000167_0001_17_33_H_._HHH_b2_02962_0001_0000500018_0000001_0_0001 (protein)
chain: TLERDAELALKLAPSPKALRKVLEWALRTIGDPEERRKFIEIVEKIARELGNEELEEAAEEALRK
B16: il2ra_site1_1z92_sap_10_mot_dddd11d5de81826a7497a0a2545a4374_0001_1_000000154_0001_35_49_H_._c6d4a73ca639c749d569e70f45b36260_0001_af2_0001_0000300024_0000001_0 … (protein)
chain: SSSSSSNEELRRLLDELEAAKAAGDLARARALLERLRALAEERKSPRLLAFVEWAREELESSSSS
B17: il2ra_site1_1z92_sap_18_mot_HHH_b1_03544_000000035_0001_24_41_H_._HHH_b1_08306_0001_0000500045_0000001_0_0001 (protein)
chain: SSSSDAREKFAERVVEDFVKLAGLDEEEKEQLEEVARELVERGLSNMEIARELARLAEELSSSSS
B18: il2ra_site1_1z92_sap_18_mot_HHH_b1_07316_af2_000000150_0001_43_56_H_._HHH_b2_07834_af2_0001_0000500024_0000001_0_0001_af2pred_0001_af2pred (protein)
chain: SSSSDEEVLREDLENLIKFASSHENFRKVVEKLLKLDRQLDEELVELLEELAEEVLKEFEESSSS

target: il2ra, P01589; test: yeast display titration

Binder | apparent Kd
B1 | inactive: no binding seen
B2 | inactive: no binding seen
B3 | inactive: no binding seen
B4 | inactive: no binding seen
B5 | inactive: no binding seen
B6 | inactive: no binding seen
B7 | inactive: no binding seen
B8 | inactive: no binding seen
B9 | inactive: no binding seen
B10 | inactive: no binding seen
B11 | inactive: no binding seen
B12 | inactive: no binding seen
B13 | inactive: no binding seen
B14 | inactive: no binding seen
B15 | inactive: no binding seen
B16 | inactive: no binding seen
B17 | inactive: no binding seen
B18 | inactive: no binding seen

4 entries from above, with tabs.
Binder	apparent Kd
B10	inactive: no binding seen
B12	inactive: no binding seen
B15	inactive: no binding seen
B17	inactive: no binding seen
